This assay has as its target T1, MecA with C-terminal tandem affinity purification (TAP) tag (3x HA + FLAG) (S. mutans) (UniProt Q8DW33).
T1 sequence: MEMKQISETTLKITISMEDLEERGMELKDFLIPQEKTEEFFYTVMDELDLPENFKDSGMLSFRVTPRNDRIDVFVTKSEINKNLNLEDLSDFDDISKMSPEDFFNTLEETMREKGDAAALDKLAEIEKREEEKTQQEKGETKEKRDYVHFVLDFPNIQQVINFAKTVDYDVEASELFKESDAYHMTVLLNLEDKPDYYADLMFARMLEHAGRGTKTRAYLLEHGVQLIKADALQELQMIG
In words: affinity purification with mass spectrometry.

No constants are given. Whether binding was seen depends on the method and setting. In cells and extracts the contact can be indirect. These calls come from enrichment with a bait or labelling near it, and not all partners need be listed. Where a sequence is shown, tags or fusion partners need not be part of it.

B1: Response regulator transcription factor, GcrR (protein, UniProt Q9S151 1-230)
chain: MAKDILIIEDEKKLAKFVSLELQHEGYEVEVTYDGRSGLERALEKDFDLILLDLMLPEMDGYEVIRRLQLEKTTYVIIITARDSIMDIVTGLDRGADGYIVKPFAIEELLARVRAIFRRQDIEKAKHSSKNDTTYRDLKLDVHNRAAIRNGETIPLTKREFDLLNALVENINQVMTREELLARVWKYDQEAETNVVDVYIRYLRGKIDVPGKESYIQTVRGMGYIIRENN
Consider B1, for which the binding entry was “binds”.

B2: Response regulator transcription factor, CovR (protein, UniProt Q93MY4 1-235)
chain: MKKILIVDDEKPISDIIKFNLAKEGYDTITAFDGREALSKYEEENPDLIILDLMLPELDGLEVAKEVRKNSHVPIIMLSAKDSEFDKVIGLEIGADDYVTKPFSNRELLARVKAHLRRTENIESAVAEENASGIPEIIIGDLQILPDAFVAKKRGTEVELTHREFELLHHLATHTGQVMTREHLLETVWGYDYFGDVRTVDVTVRRLREKIEDTPSRPEYILTRRGVGYYMKSYD
For B2, the binding result is listed as “binds”.

B3: Non-ribosomal peptide synthetase, BacD (protein, UniProt Q8DTJ8 1-1455)
chain: MIWDKVLDHKIDSTQTNFFSEGGNSLIATLVISEIKNTYHVDVSFEDLLKNDSIEKLANFIVNQLWLSKQVINNKTLEKESKSIDTLEEESGPVDSLKASPQQSRMVLNQLFNPSSTAFNIPVIFQLTDQFDKNEFEDCLKEIIKKHQTLNINFSINEDGIFQKVQNQIIDVREIKIAAFDETLSSIISPFEIGKDSLIRLIYADAPSEKYLILDFHHSIIDGYSIVLLHNELFKKLSDEKIYFENVDYFDYCIWMEKYIHSPSYKKQEKFWLKIFENYQLIQHLKQKSNSTFEGDSIEFSFSKDLNKKIRETTKEWGISIYSFLLSMYAQLIHKEHNLYDFIIGTPVSGRTNPRFIKTIGMFINTLPIRVKINDSENYEQYSQRMNSNIRKMLENQDYQFDHLVEQLKKINPQLPRLEFETMFNYQNYSRNWKSLEKFGLNHITVRQNSEKFNFSMTLEEREDEILGCFSFNVEVLTRNEAKWYVEQFINICEEAVVQKDINTVTTLQNIEDTNIYYKIMENLSDFNGKTALVSYKSKVEYAELDQFVDNYVQRFKQEGIRKSDRIAIMMDRSIENVLVILAILKIGACYIPIDSKFPESRKKFILKDANCKYIVNNKQVIKNVEYEAKELDSSELNLAYIIYTSGSTGQPKGVKITQSNLYSFLKAISNRFSQYNYSSILCVTSISFDIFILETLFPIFMGKTCVFASDEEIEDISKLTQLIRIYQVDTIQSTPSRWGIFTEDEQLMTLLKERLKLVLVGGEKLTKNIAEKLLSIGGKLINLYGPTEATVWAFASEVTDPNQIYLGEPLNNTTAYILDENGKESPKGELCLQGSGVSPGYQNRPELTEKSFVKSLKHGNNILYHTGDIVEYTNDQDYLFIGRKDDQVKVNGYRVELGEIDSIISKMSKIKRAKTIYQEETGNLIAFCESKEHCSDIETRKELSKILPKYMLPNSIIFLSEMPLMINGKIDTSKLKNKYLQIAKKSLVLSENVEELSATQQHLIKIFKSVTGYALDRDENFFEVGISSLNILRVIQHLKKTYSVDYSNLVDYPTISSLSSYLDNLSEKKLVRKVNSDKDRTQISKINEREVLNVGRKGILLTGSTGFLGCHLLKELLKQKRPIHLLIRGKNVEDIYKRLAEKFYYYFSEDLAIYSSQLHFYCGDLEKVYCGLEESEFKKLCTQVSDVINSAASVKHFGKYEDFYKSNVISVKNLITFCKESQSALFHISTISLANICDLKANQSFSEEIILTNASTSNVYLQTKYEAEKTIFEAISEGLKANILRVGNIVGSSKTGIFQMNIEENAFYQILRSFFKLKMIPDSNEKSLEFTFVDECALAISEIINNKHLTGVYHIFNQNKISFNELFDFIKTQYPYLKKMTFSKIEETQGLKGTDAEEYFDIIKIHSSTANKNVAKIDNIFTNQLLDKYNFCWSRVDKKTILLLLEYCKEINFI
B3: the binding result is listed as “binds”.

Source of the values: PMC10845952.
